According to PubChem BioAssay AID2517 (National Center for Advancing Translational Sciences (NCATS), 2010):
In all, about 350,000 compounds went through this assay and about 1,200 (0.34%) were called active. The shares of active, inactive and inconclusive entries below differ from those in the screen. Calls come from the whole dose curve; as a rule, active = well fitted inhibition curve with a large enough effect; inconclusive = small, poorly fitted or top-dose-only effect; inactive = no such curve, though single readings can be large or run the other way. Potencies beside an inconclusive call are fits to weak or partial responses and may not hold up.

The chains behind the UniProt entries cited, without tags or fusion partners.
UniProt P27695, whole entry, looked up: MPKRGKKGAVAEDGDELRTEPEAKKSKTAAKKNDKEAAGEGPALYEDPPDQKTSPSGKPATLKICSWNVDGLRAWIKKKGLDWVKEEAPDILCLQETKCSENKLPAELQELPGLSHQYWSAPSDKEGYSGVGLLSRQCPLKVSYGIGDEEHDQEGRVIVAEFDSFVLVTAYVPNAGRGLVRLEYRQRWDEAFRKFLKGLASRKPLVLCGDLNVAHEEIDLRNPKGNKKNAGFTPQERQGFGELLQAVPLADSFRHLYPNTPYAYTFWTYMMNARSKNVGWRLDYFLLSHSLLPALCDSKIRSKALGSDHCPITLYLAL

biological target: DNA repair nuclease/redox regulator APEX1 (Homo sapiens) (UniProt P27695); assay: qHTS Assay for Inhibitors of the Human Apurinic/apyrimidinic Endonuclease 1 (APE1); settings: recombinant APE1, TAMRA/BHQ-2 abasic DNA cleavage fluorescence; series mostly up to 65.8 µM; note: nearly all actives have a fitted effect of over 55% in size
Method in brief: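 Incision of a quenched TAMRA/BHQ-2 THF abasic-site duplex (50 nM) by 0.75 nM APE1, after 15 min compound preincubation, measured as fluorescence increase over three 60 s reads. Values normalized to buffer, DMSO and NSC13755 control wells.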
Potency is the fitted concentration of half-maximal effect.

| Structure (SMILES) | Potency |
| --- | --- |
| COc1ccccc1N1CCN(CCC(=O)Nc2ccc3c(c2)OCO3)CC1 | inconclusive: 0.891 µM [inhibitor, single point] |
| CC(=O)N1CC(=O)N=C1SCC(=O)Nc1nc(C)c(-c2ccccc2)s1 | inconclusive: 7.94 µM [inhibitor, partial curve] |
| CCC(=O)NC(c1ccc(C)cc1)c1cc([N+](=O)[O-])c2cccnc2c1O (stereo unspecified) | inactive |
| COc1ccc(C(=O)Nc2ccc3c(c2)nc(CN2CCCC2)n3C)cc1 | inconclusive: 20 µM [inhibitor, partial curve, poor fit] |
| NNC(=O)c1ccc(CSc2cccc3cccnc23)cc1 | inconclusive: 44.7 µM [inhibitor, single point] |
| Cc1cccc(NC(c2ccc(O)cc2)c2ccc3ccc(C)nc3c2O)n1 (stereo unspecified) | inconclusive: 28.2 µM [inhibitor, single point] |
| COc1ccc(CCNC(=O)CSc2ccc(-c3ccco3)nn2)cc1 | inconclusive: 25.1 µM [inhibitor, single point] |
| CC(C)C(NC(=O)c1ccccc1Br)c1ccccc1 (stereo unspecified) | inconclusive: 1.41 µM [inhibitor, full curve, poor fit] |
| COc1cccc(CNS(=O)(=O)c2ccc3c(c2)CCN3C(=O)C2CC2)c1 | inconclusive: 39.8 µM [inhibitor, single point] |
| O=C(O)c1ccc(Cl)c(S(=O)(=O)Nc2ccc3[nH]c(=O)[nH]c3c2)c1 | inconclusive: 31.6 µM [inhibitor, single point] |
| COc1cc(OC)c2c(O)c3c(c(-c4c5c(c(O)c6c(OC)cc(OC)cc46)CO[C@@H](C)[C@H]5O)c2c1)[C@H](O)[C@H](C)OC3 | inconclusive: 25.1 µM [inhibitor, partial curve] |
| CC(C)c1ccc(NC2CCCN(C(=O)c3ccc(N4CCOCC4)cc3)C2)cc1 (stereo unspecified) | inactive |
| CCCCC[C@H](O)/C=C/C1=C(CCCCCCC(=O)O)C(=O)CC1 | inactive |
| O=C(O)C(S)[C@@H](S)C(=O)O (stereo partly specified) | active: 14.1 µM |
| Cc1ccc(NC(=O)c2ccc3nc[nH]c3c2)cc1C | inactive |
| Nc1c(C(=O)NC2CC2)c2nc3ccccc3nc2n1-c1ccc2c(c1)OCO2 | inconclusive: 25.1 µM [inhibitor, single point] |
| COc1cccc(-n2c(C)c3c(OC)cccc(=O)c3c2C)c1 | inactive |
| CCCc1nnc(SCC(=O)N2C(C)CCCC2C)n1CCCOC (stereo unspecified) | inconclusive: 0.794 µM [inhibitor, partial curve, poor fit] |
| COc1ccccc1NS(=O)(=O)c1ccc(O)c(NC(=S)NCC2CCCO2)c1 (stereo unspecified) | inactive |
| C=CCn1c2ccccc2c(=O)c2cc(C#Cc3ccsc3)ccc21 | inactive |
| Cc1ccc(NC(=O)CN(C)C(=O)C2COc3ccccc3O2)cc1 (stereo unspecified) | inconclusive: 3.98 µM [inhibitor, single point] |

2 entries drawn at random from those above:

| Structure (SMILES) | Potency |
| --- | --- |
| O=C(O)C(S)[C@@H](S)C(=O)O (stereo partly specified) | active: 14.1 µM |
| Nc1c(C(=O)NC2CC2)c2nc3ccccc3nc2n1-c1ccc2c(c1)OCO2 | inconclusive: 25.1 µM [inhibitor, single point] |

Remaining list, next part

| Structure (SMILES) | Potency |
| --- | --- |
| O=C(Nc1ccccc1)C1CC(=O)N(c2ccc3c4c(cccc24)CC3)C1 (stereo unspecified) | inconclusive: 79.4 µM [inhibitor, single point] |
| C[C@@H](C(=O)NCc1ccccn1)[C@H]1C[C@]1(C)[C@H](NC(=O)OCc1ccccc1)c1ccccc1 | inconclusive: 44.7 µM [inhibitor, single point] |
| CCc1nc2c(sc3nc(N4CCOCC4)c4c(c32)CC(C)(C)OC4)c(=O)o1 | inconclusive: 3.16e-05 µM [inhibitor, full curve] |
| O=C(O)c1nc(-c2ccccc2)n(-c2cccc(C(F)(F)F)c2)n1 | inconclusive: 3.55 µM [inhibitor, single point] |
| Cc1ccc(C(=O)N/C(=C/c2cccs2)C(=O)NCCCn2ccnc2)cc1 | inconclusive: 0.0251 µM [inhibitor, full curve, poor fit] |
| CCOC(=O)CCN1C(=O)[C@H]2[C@H]3[C@H](O)[C@H](O)C/C(=N/OCC(C)C)[C@H]3CC[C@@H]2C1=O | inconclusive: 3.98 µM [inhibitor, single point] |
| CC1Cn2c(nc3sc4c(c3c2=O)CCC4)N1CCO (stereo unspecified) | inconclusive: 44.7 µM [inhibitor, single point] |
| Cc1ccc(N(CC(=O)Nc2ccccc2-c2ccccc2)S(=O)(=O)c2ccccc2)cc1 | inconclusive: 44.7 µM [inhibitor, single point] |
| Cc1cc(C)n2cnnc2n1 | inconclusive: 7.94 µM [inhibitor, single point] |
| O=C(NCc1ccccc1)c1c[nH]c2ccc(S(=O)(=O)Nc3ccc4c(c3)OCCO4)cc2c1=O | inconclusive: 44.7 µM [inhibitor, single point] |
| Cc1cccc(N2CCN(C(=O)C3COc4ccccc4O3)CC2)c1C (stereo unspecified) | inconclusive: 25.1 µM [inhibitor, single point] |
| Cc1ccc(NC(=O)CN2CCC(C(N)=O)CC2)cc1[N+](=O)[O-] | inconclusive: 1 µM [inhibitor, full curve, poor fit] |
| COc1ccc(OC)c(/C=N/Nc2nncn2/N=C/c2cc(OC)ccc2OC)c1 | inactive |
| COC(=O)c1[nH]c(=O)c2ccccc2c1O | inconclusive: 28.2 µM [inhibitor, partial curve, poor fit] |
| CCc1nc2cc3sc(CC)nc3cc2s1 | inconclusive: 39.8 µM [inhibitor, single point] |
| Cc1ccc(CNC(=O)C2=CCN(S(=O)(=O)c3ccc(C)cc3)CC2)cc1 | inconclusive: 3.16 µM [inhibitor, single point] |
| O=C(NCCN1CCOCC1)c1ccc2c(c1)ncn2C1CCCC1 | inconclusive: 3.55 µM [inhibitor, single point] |
| COc1ccc2[nH]c(=O)c(CN(Cc3nnnn3Cc3ccco3)C3CCCCC3)cc2c1 | inconclusive: 28.2 µM [inhibitor, partial curve] |
| CCOc1ccc(CNS(=O)(=O)c2ccc(-c3coc(C)n3)cc2)cc1 | inconclusive: 26.7 µM [inhibitor, partial curve] |
| Cc1cc(C)c(S(=O)(=O)Nc2ccccc2C(=O)OCC(=O)NCc2ccccc2)c(C)c1 | inconclusive: 22.4 µM [inhibitor, single point] |
